According to paper PMC10830565 (2024):
Results are given in words; binding and its absence hold for the method and conditions named. Binding seen in cells or lysates may run through a third protein. A result given as binding can be weak or reduced; the word gives no strength. Sequences can lack the tags named with a protein.

What was measured:
[1] = biological target: BCL7B-HA (Arabidopsis thaliana); experiment: co-IP; N. benthamiana leaves co-expressing BRM-N-GFP and BCL7A/B-HA; lysate on anti-HA agarose beads, 4 °C 3 h; immunoblot
[2] = biological target: BCL7A-HA (Arabidopsis thaliana); experiment: as above

binding [1]: binds
binding [2]: binds
B1: BRM-N-GFP (domain or fragment, UniProt Q6EVK6 1-952)
chain: MQSGGSGGGPARNPAMGPAGRTASTSSAASPSSSSSSVQQQQQQQQQQQQQQQLASRQQQQQHRNSDTNENMFAYQPGGVQGMMGGGNFASSPGSMQMPQQSRNFFESPQQQQQQQQQGSSTQEGQQNFNPMQQAYIQFAMQAQHQKAQQQARMGMVGSSSVGKDQDARMGMLNMQDLNPSSQPQASSSKPSGDQFARGERQTESSSQQRNETKSHPQQQVGTGQLMPGNMIRPMQAPQAQQLVNNMGNNQLAFAQQWQAMQAWARERNIDLSHPANASQMAHILQARMAAQQKAGEGNVASQSPSIPISSQPASSSVVPGENSPHANSASDISGQSGSAKARHALSTGSFASTSSPRMVNPAMNPFSGQGRENPMYPRHLVQPTNGMPSGNPLQTSANETPVLDQNASTKKSLGPAEHLQMQQPRQLNTPTPNLVAPSDTGPLSNSSLQSGQGTQQAQQRSGFTKQQLHVLKAQILAFRRLKKGEGSLPPELLQAISPPPLELQTQRQISPAIGKVQDRSSDKTGEDQARSLECGKESQAAASSNGPIFSKEEDNVGDTEVALTTGHSQLFQNLGKEATSTDVATKEEQQTDVFPVKSDQGADSSTQKNPRSDSTADKGKAVASDGSQSKVPPQANSPQPPKDTASARKYYGPLFDFPFFTRKLDSYGSATANANNNLTLAYDIKDLICEEGAEFLSKKRTDSLKKINGLLAKNLERKRIRPDLVLRLQIEEKKLRLSDLQSRVREEVDRQQQEIMSMPDRPYRKFVRLCERQRLEMNRQVLANQKAVREKQLKTIFQWRKKLLEAHWAIRDARTARNRGVAKYHEKMLREFSKRKDDGRNKRMEALKNNDVERYREMLLEQQTNMPGDAAERYAVLSSFLTQTEDYLHKLGGKITATKNQQEVEEAANAAAVAARLQGLSEEEVRAAATCAREEVVIRNRFTEMNAPKEN
